Results are given in words; binding and its absence hold for the method and conditions named. For some of these results: Binding seen in cells or lysates may run through a third protein. Some results given as binding are weak or reduced against the parent protein; the word gives no strength. Values belong to the substance of their own block, whether it stands above or below them.
Key:
GST fusion HSF1 = GST fusion HSF1 (UniProt P38532); test: pull-down; GST fusion protein on beads (0-100 ng), pre-incubated with 100 ug/ml BSA; 10 ng recombinant partner, 4 °C, 1 h; 50 mM Tris pH 7.5, 28 uM ZnCl2, 1% Triton X100, 220 mM NaCl, 10% glycerol; washes with 500 mM NaCl; blot with Smad3 or HSF1 antibody; both purified
[1] = target: Smad family member 3 (Smad3), endogenous in mouse heart and cardiac fibroblasts (mouse (endogenous in mouse left ventricle and cardiac fibroblasts)) (UniProt Q8BUN5); test: co-IP; 500 ug total protein from left ventricle of WT, HSF1 TG and HSF1 KO mice, sham or TAC for 4 weeks; IP with anti-total HSF1 or anti-total Smad3 and protein A/G Plus-Agarose; blot for Smad3 or HSF1
[2] = target: Smad family member 3 (Smad3), endogenous in mouse heart and cardiac fibroblasts (mouse (endogenous in mouse left ventricle and cardiac fibroblasts)) (UniProt Q8BUN5); test: co-IP; total protein of cultured cardiac fibroblasts from WT mouse heart, infected by indicated adenoviruses, mechanically stretched for 6, 12 and 24 h; IP with antibodies against HSF1 or Smad3; blot for Smad3 or HSF1
GST fusion Smad3 = GST fusion Smad3 (UniProt Q8BUN5); test: pull-down; GST fusion protein on beads (0-100 ng), pre-incubated with 100 ug/ml BSA; 10 ng recombinant partner, 4 °C, 1 h; 50 mM Tris pH 7.5, 28 uM ZnCl2, 1% Triton X100, 220 mM NaCl, 10% glycerol; washes with 500 mM NaCl; blot with Smad3 or HSF1 antibody; both purified

Protein sequences, listed by entry. Tags and fused reporters are not part of them.
UniProt P38532: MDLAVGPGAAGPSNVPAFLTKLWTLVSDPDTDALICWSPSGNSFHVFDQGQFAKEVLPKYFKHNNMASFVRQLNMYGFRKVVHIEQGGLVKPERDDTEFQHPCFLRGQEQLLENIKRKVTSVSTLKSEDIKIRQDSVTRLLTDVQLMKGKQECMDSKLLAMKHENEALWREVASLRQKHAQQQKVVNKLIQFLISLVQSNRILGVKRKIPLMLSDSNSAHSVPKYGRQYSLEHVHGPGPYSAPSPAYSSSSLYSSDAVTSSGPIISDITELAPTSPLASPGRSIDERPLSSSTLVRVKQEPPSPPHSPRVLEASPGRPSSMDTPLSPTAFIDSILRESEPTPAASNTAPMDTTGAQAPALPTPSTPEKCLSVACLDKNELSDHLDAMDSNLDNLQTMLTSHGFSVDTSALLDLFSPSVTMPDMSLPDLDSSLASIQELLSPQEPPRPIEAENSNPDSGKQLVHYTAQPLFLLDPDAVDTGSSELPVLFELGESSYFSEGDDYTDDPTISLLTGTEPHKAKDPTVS
UniProt Q8BUN5: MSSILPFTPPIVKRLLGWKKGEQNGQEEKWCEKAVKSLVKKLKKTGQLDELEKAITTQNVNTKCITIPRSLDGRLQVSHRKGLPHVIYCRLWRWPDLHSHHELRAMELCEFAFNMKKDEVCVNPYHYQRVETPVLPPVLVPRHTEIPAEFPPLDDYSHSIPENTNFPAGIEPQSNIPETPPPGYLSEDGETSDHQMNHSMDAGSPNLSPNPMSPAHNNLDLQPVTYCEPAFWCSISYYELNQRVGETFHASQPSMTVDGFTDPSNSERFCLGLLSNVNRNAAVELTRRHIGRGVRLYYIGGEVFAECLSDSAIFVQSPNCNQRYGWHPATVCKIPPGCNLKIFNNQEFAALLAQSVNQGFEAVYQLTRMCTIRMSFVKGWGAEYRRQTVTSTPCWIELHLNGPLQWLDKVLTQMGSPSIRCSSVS

- binding (GST fusion HSF1): binds
Substance: recombinant Smad3 (from UniProt Q8BUN5 1-425)

- binding [1]: binds
- binding [2]: binds
Substance: Heat shock transcription factor 1 (HSF1), endogenous in mouse heart and cardiac fibroblasts (from UniProt P38532 1-525)

- binding (GST fusion Smad3): binds
Substance: recombinant HSF1 (from UniProt P38532 1-525)
